The text below walks through data of paper PMC6946564.

The assay concerns the target APOBEC3G (A3G), wild type, Q9HC16. As to the kind of experiment: optical tweezers (ssDNA extension at constant force); single 8.1 knt ssDNA tethered between two beads and held at a constant force (10-80 pN); 50 nM A3G flowed in for 100 s, then protein-free buffer; 10 mM HEPES, 50 mM Na+, pH 7.5 (also 50 mM Na+/10 mM Mg and 150 mM Na+/1 mM Mg at 20 pN); oligomerization of ssDNA-bound A3G is inferred from the lack of dissociation after free protein is removed; both purified. The following applies: remark: other sources report otherwise.

These are yes or no findings as the source states them, for the method shown. Some results given as binding are weak or reduced against the parent protein; the word gives no strength.

B1: APOBEC3G (A3G), wild type, Q9HC16 1-384 (enzyme)
chain: MKPHFRNTVERMYRDTFSYNFYNRPILSRRNTVWLCYEVKTKGPSRPPLDAKIFRGQVYSELKYHPEMRFFHWFSKWRKLHRDQEYEVTWYISWSPCTKCTRDMATFLAEDPKVTLTIFVARLYYFWDPDYQEALRSLCQKRDGPRATMKIMNYDEFQHCWSKFVYSQRELFEPWNNLPKYYILLHIMLGEILRHSMDPPTFTFNFNNEPWVRGRHETYLCYEVERMHNDTWVLLNQRRGFLCNQAPHKHGFLEGRHAELCFLDVIPFWKLDLDQDYRVTCFTSWSPCFSCAQEMAKFISKNKHVSLCIFTARIYDDQGRCQEGLRTLAEAGAKISIMTYSEFKHCWDTFVDHQGCPFQPWDGLDEHSQDLSGRLRAILQNQEN
Turning to B1, the binding entry is listed as “binds”.
